A short description of the series: physchem. The following applies: buffer, pH 7.4.

The values below come from ChEMBL document CHEMBL3217691, “Discovery and optimization of efficacious neutral 4-amino-6-biphenyl-7,8-dihydropyrimido[5,4-f][1,4]oxazepin-5-one diacylglycerol acyl transferase-1 (DGAT1) inhibitors” (Medchemcomm, 2013).

Broadly, the logD is lipophilicity at a set pH, counting ionised and neutral species.

`Nc1ncnc2c1C(=O)N(c1ccc(-c3ccc(Cn4cccnc4=O)cc3Cl)cc1)CCO2` gave a logD of 0.9.
The result for `CN(Cc1ccc(-c2ccc(N3CCOc4ncnc(N)c4C3=O)cc2)c(Cl)c1)S(C)(=O)=O` reads 2.1.
